Earlier results as cited in patent US5231089A, “Method of improving oral bioavailability of carbamazepine” (priority 1992, dated 1993).

Settings: with cyclodextrin polymer; cited from earlier work

Q: With NS(=O)(=O)c1cc(C(=O)O)c(NCc2ccco2)cc1Cl [furosemide] as the molecule, how does the dissolution read?
A: The dissolution was “improve”.
